Some results were stated once for a whole list of compounds, not compound by compound.
molecular target: Fms (UniProt P07333); assay: Fms assays of Examples 40 or 41 (AlphaScreen kinase assays at 10 and 100 μM ATP, 33P-ATP filter assay, RAW264.7 pFMS and M-NFS-60 M-CSF-stimulated proliferation); settings: in at least one of the Fms assays described in Examples 40 or 41

IC50, < 1000 nM:
COc1ccc(F)cc1CNc1ccc(Cc2c[nH]c3ncccc23)cn1 [P-0366, (5-Fluoro-2-methoxy-benzyl)-[5-(1H-pyrrolo[2,3-b]pyridin-3-ylmethyl)-pyridin-2-yl]-amine]
FC(F)Oc1ccccc1CNc1ccc(Cc2c[nH]c3ncccc23)cn1 [P-0367, (2-Difluoromethoxy-benzyl)-[5-(1H-pyrrolo[2,3-b]pyridin-3-ylmethyl)-pyridin-2-yl]-amine]
Cc1ccc(CNc2ccc(Cc3c[nH]c4ncccc34)cn2)c(F)c1 [P-0368, (2-Fluoro-4-methyl-benzyl)-[5-(1H-pyrrolo[2,3-b]pyridin-3-ylmethyl)-pyridin-2-yl]-amine]
CN(C)CCCOc1ccccc1CNc1ccc(Cc2c[nH]c3ncccc23)cn1 [P-0369, [2-(3-Dimethylamino-propoxy)-benzyl]-[5-(1H-pyrrolo[2,3-b]pyridin-3-ylmethyl)-pyridin-2-yl]-amine]
COc1ccc(CNc2ccc(Cc3c[nH]c4ncccc34)cn2)c(OC)n1 [P-0370, (2,6-Dimethoxy-pyridin-3-ylmethyl)-[5-(1H-pyrrolo[2,3-b]pyridin-3-ylmethyl)-pyridin-2-yl]-amine]
COc1ccc(F)c(CNc2ccc(Cc3c[nH]c4ncccc34)cn2)c1 [P-0371, (2-Fluoro-5-methoxy-benzyl)-[5-(1H-pyrrolo[2,3-b]pyridin-3-ylmethyl)-pyridin-2-yl]-amine]
Cc1cc(F)ccc1CNc1ccc(Cc2c[nH]c3ncccc23)cn1 [P-0372, (4-Fluoro-2-methyl-benzyl)-[5-(1H-pyrrolo[2,3-b]pyridin-3-ylmethyl)-pyridin-2-yl]-amine]
Fc1cc(Cl)cc(CNc2ccc(Cc3c[nH]c4ncccc34)cn2)c1 [P-0373, (3-Chloro-5-fluoro-benzyl)-[5-(1H-pyrrolo[2,3-b]pyridin-3-ylmethyl)-pyridin-2-yl]-amine]
c1cnc2[nH]cc(Cc3ccc(NCc4ccc(OC5CCCC5)nc4)nc3)c2c1 [P-0374, (6-Cyclopentyloxy-pyridin-3-ylmethyl)-[5-(1H-pyrrolo[2,3-b]pyridin-3-ylmethyl)-pyridin-2-yl]-amine]
Fc1ccc(C(F)(F)F)c(CNc2ccc(Cc3c[nH]c4ncccc34)cn2)c1 [P-0375, (5-Fluoro-2-trifluoromethyl-benzyl)-[5-(1H-pyrrolo[2,3-b]pyridin-3-ylmethyl)-pyridin-2-yl]-amine]
FC(F)(F)COc1ncccc1CNc1ccc(Cc2c[nH]c3ncccc23)cn1 [P-0376, [5-(1H-Pyrrolo[2,3-b]pyridin-3-ylmethyl)-pyridin-2-yl]-[2-(2,2,2-trifluoro-ethoxy)-pyridin-3-ylmethyl]-amine]
CCCS(=O)(=O)Nc1cccc(CNc2ccc(Cc3c[nH]c4ncccc34)cn2)c1F [P-0377, Propane-1-sulfonic acid (2-fluoro-3-{[5-(1H-pyrrolo[2,3-b]pyridin-3-ylmethyl)-pyridin-2-ylamino]-methyl}-phenyl)-amide]
COc1ccc(CNc2ccc(Cc3c[nH]c4ncccc34)c(F)n2)cn1 [P-0378, [6-Fluoro-5-(1H-pyrrolo[2,3-b]pyridin-3-ylmethyl)-pyridin-2-yl]-(6-methoxy-pyridin-3-ylmethyl)-amine]
COc1ccc(CNc2ccc(Cc3c[nH]c4ncc(Cl)cc34)c(F)n2)cn1 [P-0379, [5-(5-Chloro-1H-pyrrolo[2,3-b]pyridin-3-ylmethyl)-6-fluoro-pyridin-2-yl]-(6-methoxy-pyridin-3-ylmethyl)-amine]
Clc1ccc(Cl)c(CNc2ccc(Cc3c[nH]c4ncccc34)cn2)c1 [P-0380, (2,5-Dichloro-benzyl)-[5-(1H-pyrrolo[2,3-b]pyridin-3-ylmethyl)-pyridin-2-yl]-amine]
c1cnc2[nH]cc(Cc3ccc(NCc4cncnc4)nc3)c2c1 [P-0381, Pyrimidin-5-ylmethyl-[5-(1H-pyrrolo[2,3-b]pyridin-3-ylmethyl)-pyridin-2-yl]-amine]
Fc1ccc(Cl)cc1CNc1ccc(Cc2c[nH]c3ncccc23)cn1 [P-0382, (5-Chloro-2-fluoro-benzyl)-[5-(1H-pyrrolo[2,3-b]pyridin-3-ylmethyl)-pyridin-2-yl]-amine]
CCc1ccccc1CNc1ccc(Cc2c[nH]c3ncccc23)cn1 [P-0383, (2-Ethyl-benzyl)-[5-(1H-pyrrolo[2,3-b]pyridin-3-ylmethyl)-pyridin-2-yl]-amine]
CC(C)(C)C(=O)Nc1ncccc1CNc1ccc(Cc2c[nH]c3ncccc23)cn1 [P-0384, 2,2-Dimethyl-N-(3-{[5-(1H-pyrrolo[2,3-b]pyridin-3-ylmethyl)-pyridin-2-ylamino]-methyl}-pyridin-2-yl)-propionamide]
CNc1ncccc1CNc1ccc(Cc2c[nH]c3ncccc23)cn1 [P-0385, Methyl-(3-{[5-(1H-pyrrolo[2,3-b]pyridin-3-ylmethyl)-pyridin-2-ylamino]-methyl}-pyridin-2-yl)-amine]
CNc1ncc(CNc2ccc(Cc3c[nH]c4ncccc34)cn2)cn1 [P-0386, Methyl-(5-{[5-(1H-pyrrolo[2,3-b]pyridin-3-ylmethyl)-pyridin-2-ylamino]-methyl}-pyrimidin-2-yl)-amine]
CS(=O)(=O)c1ccc(CNc2ccc(Cc3c[nH]c4ncccc34)cn2)c(Cl)c1 [P-0387, (2-Chloro-4-methanesulfonyl-benzyl)-[5-(1H-pyrrolo[2,3-b]pyridin-3-ylmethyl)-pyridin-2-yl]-amine]
FC(F)Oc1ccccc1CNc1ncc(Cc2c[nH]c3ncc(Cl)cc23)cn1 [P-0390, [5-(5-Chloro-1H-pyrrolo[2,3-b]pyridin-3-ylmethyl)-pyrimidin-2-yl]-(2-difluoromethoxy-benzyl)-amine]
Fc1ccc(C(F)(F)F)c(CNc2ncc(Cc3c[nH]c4ncc(Cl)cc34)cn2)c1 [P-0391, [5-(5-Chloro-1H-pyrrolo[2,3-b]pyridin-3-ylmethyl)-pyrimidin-2-yl]-(5-fluoro-2-trifluoromethyl-benzyl)-amine]
Fc1c(Cl)cccc1CNc1ncc(Cc2c[nH]c3ncc(Cl)cc23)cn1 [P-0392, (3-Chloro-2-fluoro-benzyl)-[5-(5-chloro-1H-pyrrolo[2,3-b]pyridin-3-ylmethyl)-pyrimidin-2-yl]-amine]
Fc1c(CNc2ncc(Cc3c[nH]c4ncc(Cl)cc34)cn2)cccc1C(F)(F)F [P-0393, [5-(5-Chloro-1H-pyrrolo[2,3-b]pyridin-3-ylmethyl)-pyrimidin-2-yl]-(2-fluoro-3-trifluoromethyl-benzyl)-amine]
Fc1cc(C(F)(F)F)ccc1CNc1ncc(Cc2c[nH]c3ncc(Cl)cc23)cn1 [P-0394, [5-(5-Chloro-1H-pyrrolo[2,3-b]pyridin-3-ylmethyl)-pyrimidin-2-yl]-(2-fluoro-4-trifluoromethyl-benzyl)-amine]
Fc1cccc(CNc2ncc(Cc3c[nH]c4ncc(Cl)cc34)cn2)c1F [P-0395, [5-(5-Chloro-1H-pyrrolo[2,3-b]pyridin-3-ylmethyl)-pyrimidin-2-yl]-(2,3-difluoro-benzyl)-amine]
Fc1ccc(CNc2ncc(Cc3c[nH]c4ncc(Cl)cc34)cn2)c(Cl)c1 [P-0396, (2-Chloro-4-fluoro-benzyl)-[5-(5-chloro-1H-pyrrolo[2,3-b]pyridin-3-ylmethyl)-pyrimidin-2-yl]-amine]
FC(F)(F)Oc1ccccc1CNc1ncc(Cc2c[nH]c3ncc(Cl)cc23)cn1 [P-0402, [5-(5-Chloro-1H-pyrrolo[2,3-b]pyridin-3-ylmethyl)-pyrimidin-2-yl]-(2-trifluoromethoxy-benzyl)-amine]
O=C(c1ccc(NCc2ccccc2F)nc1)c1c[nH]c2ncccc12 [P-0403, [6-(2-fluoro-benzylamino)-pyridin-3-yl]-(1H-pyrrolo[2,3-b]pyridin-3-yl)-methanone]
O=C(c1ccc(NCc2ccccc2F)nc1)c1c[nH]c2ncc(Cl)cc12 [P-0404, (5-chloro-1H-pyrrolo[2,3-b]pyridin-3-yl)-[6-(2-fluoro-benzylamino)-pyridin-3-yl]-methanone]
COc1ccc(CNc2ccc(C(=O)c3c[nH]c4ncc(Cl)cc34)cn2)cn1 [P-0405, (5-chloro-1H-pyrrolo[2,3-b]pyridin-3-yl)-6-[(6-methoxy-pyridin-3-ylmethyl)-amino]-pyridin-3-yl-methanone]
Fc1ccc(Cl)c(CNc2ncc(Cc3c[nH]c4ncccc34)cn2)c1 [P-0407, (2-Chloro-5-fluoro-benzyl)-[5-(1H-pyrrolo[2,3-b]pyridin-3-ylmethyl)-pyrimidin-2-yl]-amine]
Fc1ccc(Cl)c(CNc2ncc(Cc3c[nH]c4ncc(Cl)cc34)cn2)c1 [P-0408, (2-Chloro-5-fluoro-benzyl)-[5-(5-chloro-1H-pyrrolo[2,3-b]pyridin-3-ylmethyl)-pyrimidin-2-yl]-amine]
FC(F)(F)COc1ccc(CNc2ccc(Cc3c[nH]c4ncc(Cl)cc34)cn2)cn1 [P-0409, [5-(5-Chloro-1H-pyrrolo[2,3-b]pyridin-3-ylmethyl)-pyridin-2-yl]-[6-(2,2,2-trifluoro-ethoxy)-pyridin-3-ylmethyl]-amine]
O=C(Nc1cccc(F)c1)Nc1ccc(Cc2c[nH]c3ncccc23)cn1 [P-0412, 1-(3-fluoro-phenyl)-3-[5-(1H-pyrrolo[2,3-b]pyridin-3-ylmethyl)-pyridin-2-yl]-urea]
